Measured values taken from the supplement of paper PMC10849652.
The other results are listed elsewhere or left out. Residues, ends and D or L forms follow the SMILES beside them. *: point of attachment. Cbz = O=C(OCc1ccccc1)*

The chains behind the UniProt entries cited, without tags or fusion partners. Where a name states a change or a piece, a line headed by the entry shows the natural chain unless it says otherwise.
UniProt Q01968: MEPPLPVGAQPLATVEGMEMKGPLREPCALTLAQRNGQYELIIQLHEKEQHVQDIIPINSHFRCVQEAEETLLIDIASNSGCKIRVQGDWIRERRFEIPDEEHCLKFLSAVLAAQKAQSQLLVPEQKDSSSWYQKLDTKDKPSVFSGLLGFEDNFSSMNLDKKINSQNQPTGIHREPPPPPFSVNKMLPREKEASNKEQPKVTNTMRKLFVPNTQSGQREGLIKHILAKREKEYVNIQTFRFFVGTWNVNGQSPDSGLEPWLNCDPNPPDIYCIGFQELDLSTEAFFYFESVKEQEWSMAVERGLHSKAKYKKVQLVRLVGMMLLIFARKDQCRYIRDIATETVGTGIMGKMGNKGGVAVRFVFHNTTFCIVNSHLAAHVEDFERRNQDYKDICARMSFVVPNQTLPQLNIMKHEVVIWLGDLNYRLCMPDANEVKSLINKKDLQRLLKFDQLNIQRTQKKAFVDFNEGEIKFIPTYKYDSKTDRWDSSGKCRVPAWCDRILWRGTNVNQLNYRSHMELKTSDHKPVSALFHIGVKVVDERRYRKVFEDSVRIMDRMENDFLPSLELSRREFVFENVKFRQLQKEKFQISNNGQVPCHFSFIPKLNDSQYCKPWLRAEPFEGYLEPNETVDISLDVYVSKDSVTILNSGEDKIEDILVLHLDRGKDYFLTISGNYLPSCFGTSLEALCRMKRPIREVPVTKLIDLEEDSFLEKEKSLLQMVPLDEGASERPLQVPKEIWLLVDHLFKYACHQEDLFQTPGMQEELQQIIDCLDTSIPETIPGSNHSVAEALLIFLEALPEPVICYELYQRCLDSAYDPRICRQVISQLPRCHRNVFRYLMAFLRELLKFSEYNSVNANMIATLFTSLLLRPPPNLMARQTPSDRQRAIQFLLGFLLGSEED
UniProt O14841: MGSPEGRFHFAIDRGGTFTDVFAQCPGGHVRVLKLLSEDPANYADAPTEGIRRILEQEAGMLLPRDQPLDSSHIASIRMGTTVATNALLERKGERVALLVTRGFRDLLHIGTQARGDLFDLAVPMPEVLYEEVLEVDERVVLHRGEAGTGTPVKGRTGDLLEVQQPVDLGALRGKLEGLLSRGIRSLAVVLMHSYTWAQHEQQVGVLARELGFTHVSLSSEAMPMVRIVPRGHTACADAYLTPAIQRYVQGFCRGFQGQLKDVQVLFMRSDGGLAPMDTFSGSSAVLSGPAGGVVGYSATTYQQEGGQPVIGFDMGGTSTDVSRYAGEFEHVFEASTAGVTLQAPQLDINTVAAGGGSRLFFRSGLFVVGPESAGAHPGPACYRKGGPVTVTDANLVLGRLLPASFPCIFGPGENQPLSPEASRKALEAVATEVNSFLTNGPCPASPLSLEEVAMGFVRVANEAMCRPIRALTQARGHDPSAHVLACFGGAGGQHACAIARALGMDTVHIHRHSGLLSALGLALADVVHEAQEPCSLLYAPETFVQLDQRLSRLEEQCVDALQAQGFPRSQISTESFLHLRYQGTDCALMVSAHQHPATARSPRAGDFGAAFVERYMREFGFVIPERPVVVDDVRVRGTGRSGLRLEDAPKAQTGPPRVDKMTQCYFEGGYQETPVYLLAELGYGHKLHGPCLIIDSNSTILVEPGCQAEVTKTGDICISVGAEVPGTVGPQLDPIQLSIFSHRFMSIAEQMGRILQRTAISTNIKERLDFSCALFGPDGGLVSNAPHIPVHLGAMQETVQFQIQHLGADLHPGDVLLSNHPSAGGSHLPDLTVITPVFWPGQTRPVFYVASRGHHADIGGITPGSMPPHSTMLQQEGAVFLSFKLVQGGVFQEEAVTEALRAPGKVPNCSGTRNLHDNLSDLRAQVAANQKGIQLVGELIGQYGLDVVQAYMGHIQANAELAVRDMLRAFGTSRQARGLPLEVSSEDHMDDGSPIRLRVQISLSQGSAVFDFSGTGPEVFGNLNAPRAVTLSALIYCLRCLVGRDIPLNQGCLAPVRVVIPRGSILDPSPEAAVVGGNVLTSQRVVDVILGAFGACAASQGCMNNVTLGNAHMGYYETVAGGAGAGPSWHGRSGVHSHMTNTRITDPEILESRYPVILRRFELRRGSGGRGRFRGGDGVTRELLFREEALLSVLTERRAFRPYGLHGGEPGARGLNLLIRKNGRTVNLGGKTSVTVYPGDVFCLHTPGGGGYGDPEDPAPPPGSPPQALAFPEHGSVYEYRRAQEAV
UniProt Q96MF7: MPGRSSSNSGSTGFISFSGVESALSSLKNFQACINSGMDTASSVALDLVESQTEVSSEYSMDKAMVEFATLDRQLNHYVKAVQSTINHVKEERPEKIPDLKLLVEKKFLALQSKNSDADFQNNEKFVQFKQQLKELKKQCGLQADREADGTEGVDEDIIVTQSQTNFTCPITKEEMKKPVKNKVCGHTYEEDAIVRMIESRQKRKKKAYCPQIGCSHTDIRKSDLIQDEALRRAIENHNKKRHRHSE
UniProt Q96DE0: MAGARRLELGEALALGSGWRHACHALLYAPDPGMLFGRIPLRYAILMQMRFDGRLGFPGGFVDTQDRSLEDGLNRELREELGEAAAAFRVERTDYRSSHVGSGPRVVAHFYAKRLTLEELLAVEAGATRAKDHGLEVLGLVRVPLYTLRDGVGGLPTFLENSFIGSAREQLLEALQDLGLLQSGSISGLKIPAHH
UniProt Q9H0G5: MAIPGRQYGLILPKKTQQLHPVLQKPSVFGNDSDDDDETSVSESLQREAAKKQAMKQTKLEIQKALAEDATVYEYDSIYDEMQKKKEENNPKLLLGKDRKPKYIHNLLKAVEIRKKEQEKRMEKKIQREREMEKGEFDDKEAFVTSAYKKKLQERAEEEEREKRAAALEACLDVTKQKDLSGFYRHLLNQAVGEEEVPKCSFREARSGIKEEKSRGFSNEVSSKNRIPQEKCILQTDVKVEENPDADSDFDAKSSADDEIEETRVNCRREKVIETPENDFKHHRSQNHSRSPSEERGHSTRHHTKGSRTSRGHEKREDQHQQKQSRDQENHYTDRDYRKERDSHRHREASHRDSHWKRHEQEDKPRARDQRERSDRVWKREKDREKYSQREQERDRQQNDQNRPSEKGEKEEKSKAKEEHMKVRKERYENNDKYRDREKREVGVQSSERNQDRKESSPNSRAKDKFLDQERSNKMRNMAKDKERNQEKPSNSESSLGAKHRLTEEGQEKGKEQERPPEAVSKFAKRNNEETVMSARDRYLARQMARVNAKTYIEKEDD
UniProt Q14980: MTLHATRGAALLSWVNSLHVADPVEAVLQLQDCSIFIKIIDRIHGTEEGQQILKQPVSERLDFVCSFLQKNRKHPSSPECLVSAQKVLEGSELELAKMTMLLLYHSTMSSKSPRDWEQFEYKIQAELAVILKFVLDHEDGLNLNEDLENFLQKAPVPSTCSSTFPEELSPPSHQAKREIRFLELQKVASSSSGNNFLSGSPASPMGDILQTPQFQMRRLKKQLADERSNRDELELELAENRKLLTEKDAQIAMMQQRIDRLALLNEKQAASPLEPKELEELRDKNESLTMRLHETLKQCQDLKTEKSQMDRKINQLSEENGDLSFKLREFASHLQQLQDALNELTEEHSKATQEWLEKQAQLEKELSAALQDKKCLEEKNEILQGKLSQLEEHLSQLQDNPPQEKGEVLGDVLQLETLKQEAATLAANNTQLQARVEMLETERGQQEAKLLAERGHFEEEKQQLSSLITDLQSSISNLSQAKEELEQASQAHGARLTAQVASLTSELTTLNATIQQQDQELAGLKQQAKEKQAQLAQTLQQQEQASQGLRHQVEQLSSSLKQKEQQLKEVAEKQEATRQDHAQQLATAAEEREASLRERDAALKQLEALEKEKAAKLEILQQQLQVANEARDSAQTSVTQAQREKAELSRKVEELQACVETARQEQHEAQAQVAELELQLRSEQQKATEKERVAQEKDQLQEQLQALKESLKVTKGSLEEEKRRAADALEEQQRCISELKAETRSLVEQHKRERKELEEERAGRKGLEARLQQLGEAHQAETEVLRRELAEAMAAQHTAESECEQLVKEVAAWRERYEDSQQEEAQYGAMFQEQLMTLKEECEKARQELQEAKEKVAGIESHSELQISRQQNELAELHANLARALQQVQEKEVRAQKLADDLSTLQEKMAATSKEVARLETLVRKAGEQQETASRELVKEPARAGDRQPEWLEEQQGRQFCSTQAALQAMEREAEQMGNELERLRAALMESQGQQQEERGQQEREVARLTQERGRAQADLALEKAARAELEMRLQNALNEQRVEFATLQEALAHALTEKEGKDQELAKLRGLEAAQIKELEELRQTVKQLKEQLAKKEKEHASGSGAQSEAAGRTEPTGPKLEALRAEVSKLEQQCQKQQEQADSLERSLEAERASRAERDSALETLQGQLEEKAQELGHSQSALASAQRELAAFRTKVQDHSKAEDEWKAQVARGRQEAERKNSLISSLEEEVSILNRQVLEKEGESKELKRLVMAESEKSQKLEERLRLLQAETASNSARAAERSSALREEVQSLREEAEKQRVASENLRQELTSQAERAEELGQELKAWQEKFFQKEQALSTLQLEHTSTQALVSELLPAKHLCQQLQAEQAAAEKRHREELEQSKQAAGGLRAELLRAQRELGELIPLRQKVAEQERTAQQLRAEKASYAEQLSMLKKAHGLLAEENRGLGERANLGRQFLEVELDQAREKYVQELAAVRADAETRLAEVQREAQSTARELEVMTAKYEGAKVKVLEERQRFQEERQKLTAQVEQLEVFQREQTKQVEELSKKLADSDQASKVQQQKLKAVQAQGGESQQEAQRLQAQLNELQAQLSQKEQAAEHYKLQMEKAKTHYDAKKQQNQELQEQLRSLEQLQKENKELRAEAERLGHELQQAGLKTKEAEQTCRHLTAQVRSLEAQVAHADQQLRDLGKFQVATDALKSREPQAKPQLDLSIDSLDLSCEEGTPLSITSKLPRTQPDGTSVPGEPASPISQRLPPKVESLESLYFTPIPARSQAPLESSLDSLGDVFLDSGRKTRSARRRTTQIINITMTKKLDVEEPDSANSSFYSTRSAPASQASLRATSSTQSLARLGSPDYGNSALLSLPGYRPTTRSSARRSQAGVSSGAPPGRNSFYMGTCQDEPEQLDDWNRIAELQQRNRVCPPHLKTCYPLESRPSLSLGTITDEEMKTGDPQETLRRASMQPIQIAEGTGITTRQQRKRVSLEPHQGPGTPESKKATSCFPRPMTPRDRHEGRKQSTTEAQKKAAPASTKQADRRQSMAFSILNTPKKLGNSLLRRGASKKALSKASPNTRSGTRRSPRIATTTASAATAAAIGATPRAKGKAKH
UniProt O15504: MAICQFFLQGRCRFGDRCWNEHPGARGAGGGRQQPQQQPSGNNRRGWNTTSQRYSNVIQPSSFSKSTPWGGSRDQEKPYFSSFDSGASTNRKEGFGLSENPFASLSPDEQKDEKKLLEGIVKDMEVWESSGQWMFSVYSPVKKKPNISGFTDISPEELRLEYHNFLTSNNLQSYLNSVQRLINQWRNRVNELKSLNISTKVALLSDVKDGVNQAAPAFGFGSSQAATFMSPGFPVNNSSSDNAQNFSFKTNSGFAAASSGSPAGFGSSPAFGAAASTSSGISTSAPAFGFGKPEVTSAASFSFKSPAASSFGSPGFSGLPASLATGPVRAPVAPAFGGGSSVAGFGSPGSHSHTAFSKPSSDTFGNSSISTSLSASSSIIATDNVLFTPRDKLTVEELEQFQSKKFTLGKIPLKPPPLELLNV
UniProt Q9BVL2: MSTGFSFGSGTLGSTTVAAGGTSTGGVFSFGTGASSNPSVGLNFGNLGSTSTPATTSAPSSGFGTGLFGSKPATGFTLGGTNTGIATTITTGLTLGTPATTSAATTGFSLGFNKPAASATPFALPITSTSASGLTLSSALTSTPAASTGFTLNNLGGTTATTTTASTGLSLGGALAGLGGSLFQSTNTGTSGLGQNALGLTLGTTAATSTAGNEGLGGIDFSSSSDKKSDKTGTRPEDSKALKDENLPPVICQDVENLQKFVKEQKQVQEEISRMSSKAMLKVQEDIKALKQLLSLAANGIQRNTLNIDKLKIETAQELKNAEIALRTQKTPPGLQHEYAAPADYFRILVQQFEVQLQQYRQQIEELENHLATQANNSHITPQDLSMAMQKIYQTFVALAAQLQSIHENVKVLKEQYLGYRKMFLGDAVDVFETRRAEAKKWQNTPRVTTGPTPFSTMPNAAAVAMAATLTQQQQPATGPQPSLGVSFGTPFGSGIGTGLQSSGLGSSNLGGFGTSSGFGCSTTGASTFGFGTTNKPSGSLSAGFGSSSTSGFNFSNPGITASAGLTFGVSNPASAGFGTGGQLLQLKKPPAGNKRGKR

Legend:
Assay in all cases: log2 fold change, soluble protein after heating vs DMSO (PISA); higher = thermal stabilisation; K562 cells, 10 uM, 30 min; active = over 0.2 and 3.5 SD of the protein, either way, in both replicates (recomputed)
IRAK-1-4 Inhibitor I = compound: C1COCCN1CCN2C3=CC=CC=C3N=C2NC(=O)C4=CC(=CC=C4)[N+](=O)[O-] [IRAK-1-4 Inhibitor I]
In short: (§1)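 Thermal stability values are relative to control samples and come from duplicates. They are expressed as log2 fold changes. For measurement, K562 cells (2×10^6 cells/mL) received 10 μM compound for 30 min, and aliquots were heated for 3 min over 48°C-58°C, pooled, and extracted at 4°C in PBS with 0.5% NP-40. Soluble protein, the supernatant after 21,000xg for 90 min, was quantified by TMTpro 16plex LC-MS/MS with equalised channel sums.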

ibrutinib = compound: C=CC(=O)N1CCC[C@@H](n2nc(-c3ccc(Oc4ccccc4)cc3)c3c(N)ncnc32)C1 [ibrutinib]
In short: as §1

[1] = compound: CC(=O)c1cnc2ccc(-c3cc(Cl)c(O)c(Cl)c3)nc2c1N[C@H]1CC[C@H](CN(C)C)CC1
In short: as §1

ralimetinib = compound: CC(C)(C)Cn1c(N)nc2ccc(-c3[nH]c(C(C)(C)C)nc3-c3ccc(F)cc3)nc21 [ralimetinib]
In short: as §1

[2] = compound: CC(C)(O)CC(=O)NCCn1ccc2ncnc(Nc3ccc(Oc4cccc(C(F)(F)F)c4)c(Cl)c3)c21
In short: as §1

[3] = compound: CC(C)C1=C2N=C(C=C(N2N=C1)NCC3=CC=CC=C3)NCCCCCCN
In short: as §1

[4] = compound: CC(C)C[C@@H](C=O)NC(=O)[C@H](CC(C)C)NC(=O)[C@H](CC(C)C)NC(=O)OCc1ccccc1
In short: as §1

pinometostat = compound: CC(C)N(C[C@H]1O[C@@H](n2cnc3c(N)ncnc32)[C@H](O)[C@@H]1O)[C@H]1C[C@@H](CCc2nc3cc(C(C)(C)C)ccc3[nH]2)C1 [pinometostat]
In short: as §1

[5] = compound: CC1=C(C2=C(C=C1)C(=O)C3=CC=CC=C3N2CCCN)C
In short: as §1

[6] = compound: CC1=C(C=C(C=C1)NC(=O)C2=CC(=CC=C2)C(C)(C)C#N)NC3=CC4=C(C=C3)N=CN(C4=O)C
In short: as §1

[7] = compound: CC1=C(C=C(C=C1)NC(=O)C2=CC(=CC=C2)N(C)C)NC(=O)C3=CC=C(C=C3)O
In short: as §1

[8] = compound: CC1=CC=C(C=C1)SC2=C3C=C(SC3=CN=C2)C(=O)N
In short: as §1

[9] = compound: CC1=NC(=CC=C1)C2=C(N=C(N2)C(C)(C)C)C3=CC4=NC=CN=C4C=C3
In short: as §1

Nexturastat A = compound: CCCCN(Cc1ccc(C(=O)NO)cc1)C(=O)Nc1ccccc1 [Nexturastat A]
In short: as §1

vemurafenib = compound: CCCS(=O)(=O)Nc1ccc(F)c(C(=O)c2c[nH]c3ncc(-c4ccc(Cl)cc4)cc23)c1F [vemurafenib]
In short: as §1

[10] = compound: CCCS(=O)(=O)Nc1ccc(F)c(C(=O)c2c[nH]c3ncc(Cl)cc23)c1F
In short: as §1

[11] = compound: CCCc1cc(C)[nH]c(=O)c1CNC(=O)c1cc(-c2ccnc(N3CCN(C)CC3)c2)cc2c1cnn2C(C)C
In short: as §1

givinostat = compound: CCN(CC)Cc1ccc2cc(COC(=O)Nc3ccc(C(=O)NO)cc3)ccc2c1 [givinostat]
In short: as §1

barasertib = compound: CCN(CCCOc1ccc2c(Nc3cc(CC(=O)Nc4cccc(F)c4)[nH]n3)ncnc2c1)CCOP(=O)(O)O [barasertib]
In short: as §1

[12] = compound: CC1=C(C(CC(=O)N1)C2=CC=C(C=C2)C(F)(F)F)C(=O)NC3=C(C=C4C(=C3)C=NN4)F
In short: as §1

Target	log2 fold change (IRAK-1-4 Inhibitor I)	log2 fold change (ibrutinib)	log2 fold change [1]	log2 fold change (ralimetinib)	log2 fold change [2]	log2 fold change [3]	log2 fold change [4]	log2 fold change (pinometostat)	log2 fold change [5]	log2 fold change [6]	log2 fold change [7]	log2 fold change [8]	log2 fold change [9]	log2 fold change (Nexturastat A)	log2 fold change (vemurafenib)	log2 fold change [10]	log2 fold change [11]	log2 fold change (givinostat)	log2 fold change (barasertib)	log2 fold change [12]
NUP210 (UniProt Q8TEM1)	inactive: 0.005	inactive: -0.025	inactive: -0.038	inactive: -0.069	inactive: -0.176	active: -0.52	inactive: -0.007	inactive: 0.001	inactive: 0.047	inactive: -0.029	inactive: 0.052	inactive: 0.084	inactive: 0.035	inactive: -0.08	inactive: -0.002	inactive: 0.058	inactive: -0.05	inactive: -0.017	inactive: 0.029	
OXA1L (UniProt Q15070)	inactive: 0.05	inactive: 0.011	inactive: 0.03	inactive: -0.037	inactive: 0.006	inactive: -0.209	inactive: -0.004	inactive: 0	inactive: -0.018	inactive: -0.013	inactive: 0.01	inactive: 0.02	inactive: 0.01	inactive: -0.021	inactive: 0.022	inactive: -0.013	inactive: -0.049	inactive: 0.003	inactive: -0.012	
OCRL (UniProt Q01968)	inactive: -0.095	inactive: -0.068	inactive: -0.045	inactive: 0.069	inactive: 0.034	inactive: 0.056	inactive: -0.007	inactive: 0.024	inactive: 0.026	inactive: 0.079	inactive: -0.056	inactive: -0.031	inactive: 0.031	inactive: 0.012	inactive: -0.085	inactive: 0.016	inactive: 0.028	inactive: 0.16	inactive: 0.062	inactive: 0.022
NUDT9 (UniProt Q9BW91)	inactive: 0.027	inactive: -0.037	inactive: -0.032	inactive: -0.021	inactive: 0	inactive: -0.002	inactive: 0.054	inactive: -0.043	inactive: -0.018	inactive: -0.012	inactive: -0.074	inactive: 0.006	inactive: 0.046	inactive: -0.07	inactive: 0.056	inactive: 0.021	inactive: -0.008	inactive: -0.094	inactive: 0.029	inactive: -0.021
OPA1 isoform 2 (UniProt O60313)	inactive: -0.008	inactive: -0.009	inactive: -0.05	inactive: 0.043	inactive: -0.201	active: -0.375	inactive: 0.004	inactive: 0.03	inactive: 0.1	inactive: 0.01	inactive: -0.064	inactive: 0.027	inactive: -0.003	inactive: -0.018	inactive: -0.001	inactive: 0.095	inactive: -0.002	inactive: 0.052	inactive: 0.045	
OPLAH (UniProt O14841)	inactive: 0.044	inactive: 0.026	inactive: -0.018	inactive: -0.019	inactive: -0.028	inactive: 0.026	inactive: 0.001	inactive: 0.006	inactive: 0.033	inactive: -0.02	inactive: 0.008	inactive: -0.004	inactive: -0.009	inactive: -0.027	inactive: -0.012	inactive: -0.016	inactive: 0	inactive: -0.056	inactive: 0.023	inactive: -0.011
NUP205 (UniProt Q92621)	inactive: -0.035	inactive: -0.038	inactive: -0.1	inactive: -0.027	inactive: 0.032	inactive: -0.167	inactive: -0.058	inactive: 0	inactive: 0.018	inactive: 0.009	inactive: 0.018	inactive: 0.002	inactive: 0.075	inactive: 0.151	inactive: 0.059	inactive: 0.084	inactive: -0.016	inactive: 0.076	inactive: 0.044	
OTUD6B (UniProt Q8N6M0)	inactive: -0.046	inactive: -0.017	inactive: -0.02	inactive: 0.036	inactive: -0.049	active: -0.269	inactive: 0.029	inactive: 0.053	inactive: -0.015	inactive: 0.045	inactive: -0.002	inactive: 0.124	inactive: 0.007	inactive: 0.044	inactive: 0.035	inactive: 0.14	inactive: 0.084	inactive: -0.02	inactive: 0.096	
NSMCE2 (UniProt Q96MF7)	inactive: -0.023	inactive: -0.171	inactive: -0.107	inactive: 0.176	inactive: 0.051	inactive: 0.122	inactive: -0.083	inactive: -0.001	inactive: -0.122	inactive: 0.019	inactive: -0.052	inactive: 0.006	inactive: 0.056	inactive: 0.064	inactive: -0.007	inactive: 0.021	inactive: 0.018	inactive: -0.076	inactive: 0.078	
NUDT16 (UniProt Q96DE0)	inactive: 0.049	inactive: 0.03	inactive: 0.022	inactive: -0.039	inactive: 0.005	inactive: 0.066	inactive: -0.001	inactive: -0.001	inactive: 0.004	inactive: -0.031	inactive: -0.005	inactive: -0.008	inactive: -0.03	inactive: -0.003	inactive: 0.163	inactive: 0.019	inactive: -0.041	inactive: -0.006	inactive: 0.028	
NSRP1 (UniProt Q9H0G5)	inactive: -0.094	inactive: 0.021	inactive: -0.092	inactive: 0.056	inactive: 0.064	inactive: 0.006	inactive: 0.149	inactive: 0.129	inactive: 0.157	inactive: -0.028	inactive: 0.016	inactive: -0.028	inactive: -0.057	inactive: 0.222	inactive: 0.001	inactive: 0.009	inactive: 0.031	inactive: 0.002	inactive: -0.007	inactive: 0.026
NUMA1 (UniProt Q14980)	inactive: -0.107	inactive: -0.051	inactive: -0.123	inactive: 0.149	inactive: 0.073	inactive: -0.173	inactive: -0.02	inactive: 0.202	active: -0.58	inactive: 0.03	inactive: -0.029	inactive: -0.009	inactive: -0.073	inactive: 0.262	inactive: 0.02	inactive: 0.005	inactive: 0.132	inactive: 0.092	inactive: 0.005	
NUP88 (UniProt Q99567)	inactive: -0.013	inactive: -0.089	inactive: -0.004	inactive: 0.087	inactive: -0.031	inactive: -0.117	inactive: 0.013	inactive: 0.16	inactive: 0.028	inactive: -0.056	inactive: -0.027	inactive: 0.015	inactive: -0.043	inactive: 0.136	inactive: 0.022	inactive: 0.071	inactive: 0.033	inactive: 0.092	inactive: 0.012	inactive: 0.03
NSUN7 (UniProt Q8NE18)	inactive: -0.034	inactive: -0.084	inactive: -0.105	inactive: -0.272	inactive: 0.032	inactive: -0.137	inactive: 0.08	inactive: 0.022	inactive: 0.043		inactive: 0.008	inactive: -0.252	inactive: -0.112	inactive: -0.031	inactive: -0.158	inactive: -0.508	inactive: -0.182	inactive: 0.048	inactive: -0.053	inactive: 0.054
OSBPL8 (UniProt Q9BZF1)	inactive: -0.148	inactive: -0.042	inactive: -0.204	inactive: 0.199	inactive: -0.019	inactive: -0.378	inactive: 0.046	inactive: 0.201	inactive: 0.045	inactive: 0.209	inactive: 0.011	inactive: 0.009	inactive: -0.027	inactive: 0.109	inactive: 0.074	inactive: 0.035	inactive: 0.309	inactive: -0.03	inactive: 0.094	
NUP42 (UniProt O15504)	inactive: -0.123	inactive: -0.097	inactive: 0.043	inactive: 0.088	inactive: 0.209	inactive: -0.093	inactive: 0.137	inactive: 0.526	inactive: -0.155	inactive: -0.004	inactive: -0.089	inactive: -0.051	inactive: -0.096	inactive: 0.363		inactive: -0.096	inactive: -0.072	inactive: 0.05	inactive: -0.209	inactive: 0.035
NUP58 (UniProt Q9BVL2)	inactive: -0.008	inactive: -0.076	inactive: -0.034	inactive: -0.091	inactive: 0.017	inactive: 0.08	inactive: 0.013	inactive: -0.059	inactive: 0.035	inactive: -0.055	inactive: 0.042	inactive: 0	inactive: 0.011	inactive: -0.007	inactive: 0.003	inactive: 0.009	inactive: -0.029	inactive: -0.002	inactive: 0.023	inactive: 0.011

2 entries picked at random from the list so far:
Target	log2 fold change (IRAK-1-4 Inhibitor I)	log2 fold change (ibrutinib)	log2 fold change [1]	log2 fold change (ralimetinib)	log2 fold change [2]	log2 fold change [3]	log2 fold change [4]	log2 fold change (pinometostat)	log2 fold change [5]	log2 fold change [6]	log2 fold change [7]	log2 fold change [8]	log2 fold change [9]	log2 fold change (Nexturastat A)	log2 fold change (vemurafenib)	log2 fold change [10]	log2 fold change [11]	log2 fold change (givinostat)	log2 fold change (barasertib)	log2 fold change [12]
NUDT16 (UniProt Q96DE0)	inactive: 0.049	inactive: 0.03	inactive: 0.022	inactive: -0.039	inactive: 0.005	inactive: 0.066	inactive: -0.001	inactive: -0.001	inactive: 0.004	inactive: -0.031	inactive: -0.005	inactive: -0.008	inactive: -0.03	inactive: -0.003	inactive: 0.163	inactive: 0.019	inactive: -0.041	inactive: -0.006	inactive: 0.028	
OPA1 isoform 2 (UniProt O60313)	inactive: -0.008	inactive: -0.009	inactive: -0.05	inactive: 0.043	inactive: -0.201	active: -0.375	inactive: 0.004	inactive: 0.03	inactive: 0.1	inactive: 0.01	inactive: -0.064	inactive: 0.027	inactive: -0.003	inactive: -0.018	inactive: -0.001	inactive: 0.095	inactive: -0.002	inactive: 0.052	inactive: 0.045	
